The supplement of paper PMC12889115
The list shows a part of the results. These are raw signals, not scaled to a control.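 First-pass screen: polymyxin B was added at a level that permeabilizes the Salmonella outer membrane while sparing the inner membrane. DMSO wells, with and without polymyxin B, defined maximum growth. Because plates differed from one another, each plate's data were ranked separately and the compounds with the lowest OD600 were carried forward as hits.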

Tested on: Salmonella enterica serovar Typhimurium SL1344
Experiment: bacterial growth OD600 after 18 h with compound and polymyxin B; higher = more bacterial growth (less inhibition)
Conditions: 50 µM, Mueller-Hinton broth

Row | SMILES | bacterial growth OD600 (polymyxin B 1 µg/mL) | bacterial growth OD600 (polymyxin B 0.75 µg/mL)
1 | CN(CCc1ccccc1)Cc1nc(Cc2cccc(C(F)(F)F)c2)no1 | 1.03 | –
2 | Cc1nccn1-c1ccc(NC(=O)C2CCCN(Cc3ccc4c(c3)CCO4)C2)cc1 (stereo not given) | 0.888 | –
3 | COc1ccc(C(=O)N(Cc2ccc(OC)c(OCc3cccs3)c2)C2CCCC2)c(OC)c1 | – | 0.002
4 | CC(=O)c1cccc(CN2CCC(CCC(=O)Nc3ccccc3Cl)CC2)c1 | 0.887 | –
5 | CN(Cc1nc(C(c2ccccc2)c2ccccc2)no1)C1CCOCC1 | 0.787 | –
6 | CCCC(=O)N1CCC2(CCCN(Cc3cccc(F)c3F)C2=O)C1 (stereo not given) | 1.1 | –
7 | Cc1cc(C)n(Cc2cc(C(=O)N(C)CCOc3ccccc3)n[nH]2)n1 | 0.874 | –
8 | CCCCNC(=O)C1CCCN(C2CCN(Cc3ccccc3)CC2)C1 (stereo not given) | – | 0.59
9 | COc1cccc(N2C(=O)CN(CCC(C)C)CC2C)c1 (stereo not given) | – | 0.786
10 | COc1ccc(/C=C/CN2CCCC(CNC(=O)c3cccs3)C2)cc1 (stereo not given) | 0.9 | –
11 | COC(=O)[C@@H](NC(=O)CCC1(Cc2ccc3ccccc3c2)CCC(=O)N1)C(C)C (stereo not given in full) | – | 0.759
12 | CCOC(=O)N1CCC(NC2CCN(c3ccc(CC(=O)NCc4ccccc4)cc3)CC2)CC1 | – | 0.824
13 | CC1=C(C(=O)N2CCC(C3CCN(c4ncccn4)CC3)C2)OCCO1 (stereo not given) | – | 0.836
14 | Cc1ccc(CN2CCC(n3nccc3NC(=O)c3ccccc3)CC2)s1 | – | 0.738
15 | CNC(=O)CC(c1ccccc1)c1ccc2c(c1)OCO2 (stereo not given) | – | 0.793
16 | COCC(=O)Nc1cc(C(=O)N2CCN(Cc3ncccc3C)CC2)c2c(c1)nc(C1CCC1)n2C | – | 0.805
17 | Cc1nc(CN2CCN(C(=O)Cn3nnnc3CN3CCCC3)CC2)cs1 | – | 0.842
18 | COc1ccccc1CCN1CCC(CN(C)C(=O)c2occc2C)CC1 | – | 0.781
19 | COC(=O)c1ccc(N2CCN(C(=O)CC3C(=O)NCCN3Cc3ccccc3)CC2)cc1 (stereo not given) | 1.29 | –
20 | COc1ccccc1CCc1nnc(CCC(=O)NCc2cc(F)ccc2C)o1 | – | 0.738
21 | C[C@@H]1CN(C(=O)c2cc(COc3c(F)cccc3F)on2)C[C@H](C)O1 | – | 0.824
22 | CCN1CCCC1CNC(=O)C1CCN(c2nc(-c3ccccc3)nc3c2CCC3)CC1 (stereo not given) | 0.118 | –
23 | COc1cc(F)ccc1CN1CCCC(N(C)CCc2ccc(OC)c(OC)c2)C1 (stereo not given) | 1.25 | –
24 | COc1cccc(CN2CCC(C(Cc3ccccc3Cl)N(C)C(=O)c3ccco3)CC2)c1 (stereo not given) | – | 0.669
25 | COCCN1C(=O)CC(CC(=O)N(CC2CCC2)CC2CCCO2)(c2cccc(OC)c2)C1=O (stereo not given) | – | 0.758
26 | O=C(CCOc1ccccc1)Nc1ccnn1C1CCN(C(=O)c2ccco2)CC1 | 0.811 | –
27 | O=C1CCCN1CC(=O)N1CCc2onc(-c3ccc(-c4ccccc4)cc3)c2C1 | – | 0.199
28 | Cc1cccc(C)c1Oc1ncccc1CNC(=O)CCc1[nH]nc(C)c1C | 1.2 | –
29 | NC(=O)C1CCCN(C(=O)CC2(c3ccccc3)CC(=O)N(CCCOc3cccnc3)C2=O)C1 (stereo not given) | – | 0.977
30 | COCc1c(C(=O)NC2CCN(Cc3ccccc3)CC2)cnn1-c1nccc(-c2cccs2)n1 | – | 0.933

2 records drawn at random from the list so far:
Row | SMILES | bacterial growth OD600 (polymyxin B 1 µg/mL) | bacterial growth OD600 (polymyxin B 0.75 µg/mL)
7 | Cc1cc(C)n(Cc2cc(C(=O)N(C)CCOc3ccccc3)n[nH]2)n1 | 0.874 | –
12 | CCOC(=O)N1CCC(NC2CCN(c3ccc(CC(=O)NCc4ccccc4)cc3)CC2)CC1 | – | 0.824
